Experimental findings from PubChem BioAssay AID330 (DTP/NCI, 2004) are described below.

This assay concerns P388 leukemia ip, CD2F1 mice, survival T/C. Put plainly: NCI In Vivo Anticancer Drug Screen. Data for tumor model P388 Leukemia (intraperitoneal) in CD2F1 (CDF1) mice. To be noted: T/C endpoint: median survival time, higher T/C = longer survival.
Where [1] appears, read: dose: 50.0 mg/kg/injection, schedule: Q01DX005 (ip), vehicle: Klucel (hydroxypropylcellulose) (HPC).
The mark [2] stands for this setting: dose: 100.0 mg/kg/injection, schedule: Q01DX005 (ip), vehicle: Klucel (hydroxypropylcellulose) (HPC).
Setting [3] is: dose: 200.0 mg/kg/injection, schedule: Q01DX005 (ip), vehicle: Klucel (hydroxypropylcellulose) (HPC).
[4] abbreviates: dose: 50.0 mg/kg/injection, schedule: Q01DX009 (ip), vehicle: Klucel (hydroxypropylcellulose) (HPC).
Where [5] appears, read: dose: 100.0 mg/kg/injection, schedule: Q01DX009 (ip), vehicle: Klucel (hydroxypropylcellulose) (HPC).
Where [6] appears, read: dose: 200.0 mg/kg/injection, schedule: Q01DX009 (ip), vehicle: saline with Tween-80.
The mark [7] stands for this setting: dose: 200.0 mg/kg/injection, schedule: Q01DX009 (ip), vehicle: saline.
The mark [8] stands for this setting: dose: 240.0 mg/kg/injection, schedule: Q01DX005 (ip), vehicle: Klucel (hydroxypropylcellulose) (HPC).
Setting [9] is: dose: 50.0 mg/kg/injection, schedule: Q01DX009 (ip), vehicle: saline with Tween-80.
[10] abbreviates: dose: 100.0 mg/kg/injection, schedule: Q01DX009 (ip), vehicle: saline with Tween-80.
Where [11] appears, read: dose: 200.0 mg/kg/injection, schedule: Q01DX009 (ip), vehicle: Klucel (hydroxypropylcellulose) (HPC).

The list does not hold the whole screen: it is rich in T/C values a quarter to a half above the control, in often repeated tests (any T/C) and in doses without a T/C. Other doses and runs of a compound stand elsewhere. T/C is the treated group as % of the vehicle group. Some doses have a count of surviving animals in place of a T/C: the source holds a T/C of zero for them, seemingly a mark for toxic or unscored doses. Some survivor counts are full or nearly so, which does not show that the dose was tolerated: survival well below the control is almost never listed, so the zero probably covers shortened survival too. Counts of survivors are from the toxicity check (mostly the fifth day) where no day follows; animals may have died later. Schedules are NCI's codes, read here as Q, the interval in days (D) or hours (H), X, the number of doses. Where survival is the endpoint, the PubChem record calls one and a half times the control and up active, and a quarter to a half above the control has no call in these data; cut-offs in other NCI protocols can differ.

With `CCN=C(c1ccc(NC(=O)c2ccc(C(=O)Nc3ccc(C(=NCC)N(CC)CC)cc3)cc2)cc1)N(CC)CC`, the survivor count reads like this: (dose: 3.12 mg/kg/injection, schedule: Q01DX005 (ip), vehicle: Klucel (hydroxypropylcellulose) (HPC)) 0 of 6; (dose: 6.25 mg/kg/injection, schedule: Q01DX005 (ip), vehicle: Klucel (hydroxypropylcellulose) (HPC)) 0 of 6; (dose: 12.5 mg/kg/injection, schedule: Q01DX005 (ip), vehicle: Klucel (hydroxypropylcellulose) (HPC)) 0 of 6; (dose: 25.0 mg/kg/injection, schedule: Q01DX005 (ip), vehicle: Klucel (hydroxypropylcellulose) (HPC)) 0 of 6; under setting [1], 0 of 6; under setting [2], 0 of 6. For the same compound, the survivor count under setting [3] is on record as 0 of 6.
With `CC1(C)CC2C=C(C=O)C3(C=O)CC3(C)C2C1` (stereo not given), the survivor count (dose: 12.5 mg/kg/injection, schedule: Q01DX009 (ip), vehicle: Klucel (hydroxypropylcellulose) (HPC)) is given as 5 of 6; the survivor count (dose: 25.0 mg/kg/injection, schedule: Q01DX009 (ip), vehicle: Klucel (hydroxypropylcellulose) (HPC)) was 5 of 6; the survivor count under setting [4] is given as 1 of 6; the survivor count under setting [5] is reported as 3 of 6.
Take `[N-]=[N+]=CC(=O)CCC(=O)C=[N+]=[N-]`: the T/C reads like this: (dose: 1.5 mg/kg/injection, schedule: Q01DX009 (ip), vehicle: other) 143 % of control; (dose: 3.12 mg/kg/injection, schedule: Q01DX007 (ip), vehicle: DMSO) 140 % of control. Also, the survivor count was 6 of 6 (dose: 6.25 mg/kg/injection, schedule: Q01DX009 (ip), vehicle: other); 6 of 6 (dose: 12.5 mg/kg/injection, schedule: Q01DX009 (ip), vehicle: other); 6 of 6 (dose: 25.0 mg/kg/injection, schedule: Q01DX009 (ip), vehicle: other); 6 of 6 (dose: 50.0 mg/kg/injection, schedule: Q01DX009 (ip), vehicle: other); 3 of 6 (dose: 100.0 mg/kg/injection, schedule: Q01DX009 (ip), vehicle: other); 2 of 6 (dose: 200.0 mg/kg/injection, schedule: Q01DX009 (ip), vehicle: other). Moreover, the survivor count (dose: 400.0 mg/kg/injection, schedule: Q01DX009 (ip), vehicle: other) is recorded as 1 of 6.
Regarding `C=C1C(=O)OC2C1C(OC(=O)/C(C)=C/CO)C/C(C)=C/CCC1(CO)OC21` (stereo not given), where the note is “dose: 2.0 mg/kg/injection, schedule: Q01DX009 (ip), vehicle: Klucel (hydroxypropylcellulose) (HPC)”, the T/C is 125 % of control.
`CC(C)(C)c1cc(C#C[Si](C)(C)C)cc(C(C)(C)C)c1`: the survivor count by setting is: under setting [1], 6 of 6; under setting [2], 6 of 6; under setting [3], 6 of 6.
Turning to `CCCCNC1Cc2ccccc2CC1O` (stereo not given), the survivor count (dose: 50.0 mg/kg/injection, schedule: Q01DX005 (ip), vehicle: saline) is on record as 0 of 6; the survivor count (dose: 100.0 mg/kg/injection, schedule: Q01DX005 (ip), vehicle: saline) is 0 of 6; the survivor count (dose: 200.0 mg/kg/injection, schedule: Q01DX005 (ip), vehicle: saline) was 0 of 6.
Regarding `CCc1nc(N)nc(N)c1-c1ccc([N+](=O)[O-])c(Cl)c1`, the T/C (dose: 50.0 mg/kg/injection, schedule: Q01DX005 (ip), vehicle: saline with Tween-80) is 125 % of control.
Turning to `CC[n+]1ccc2c(C)c3[nH]c4ccc(O)cc4c3c(C)c2c1`, the survivor count (dose: 25.0 mg/kg/injection, schedule: Q04DX003 (ip), vehicle: saline) is reported as 3 of 6; the survivor count (dose: 50.0 mg/kg/injection, schedule: Q04DX003 (ip), vehicle: saline) is 2 of 6; the survivor count (dose: 100.0 mg/kg/injection, schedule: Q04DX003 (ip), vehicle: saline) is 5 of 6; the survivor count (dose: 200.0 mg/kg/injection, schedule: Q04DX003 (ip), vehicle: saline) is recorded as 0 of 6.
Turning to `CSC(=C(C#N)C#N)N1CC1`, the survivor count (dose: 100.0 mg/kg/injection, schedule: Q01DX001 (ip), vehicle: DMSO) is 1 of 6; the survivor count (dose: 200.0 mg/kg/injection, schedule: Q01DX001 (ip), vehicle: DMSO) is listed as 0 of 6; the survivor count (dose: 400.0 mg/kg/injection, schedule: Q01DX001 (ip), vehicle: DMSO) is 0 of 6.
Regarding `CCCNCCC(O)c1cc(C(F)(F)F)nc2c(C(F)(F)F)cccc12` (stereo not given), the survivor count under setting [6] was 0 of 6.
As to `C/C(=N\NC(N)=S)c1ccc2c(c1)Cc1cc(/C(C)=N/NC(N)=S)ccc1-2`, the survivor count (dose: 400.0 mg/kg/injection, schedule: Q04DX002 (ip), vehicle: saline with Tween-80) is recorded as 6 of 6.
As to `N#CC(Cl)CNC(=O)Oc1ccccc1` (stereo not given), the survivor count under setting [2] is recorded as 0 of 6; the survivor count under setting [3] was 0 of 6; the survivor count (dose: 400.0 mg/kg/injection, schedule: Q01DX005 (ip), vehicle: Klucel (hydroxypropylcellulose) (HPC)) is recorded as 0 of 6.
In the case of `CC(C)=C(C#N)NC(C)(C)C`, the survivor count is recorded as 4 of 6 (dose: 100.0 mg/kg/injection, schedule: Q01DX009 (ip), vehicle: saline) and 0 of 6 under setting [7].
Take `O=C1C(N=Nc2ccc(Br)cc2)Sc2nc3ccccc3n21` (stereo not given): the survivor count under setting [8] is 6 of 6.
Take `NC(=S)N/N=C/c1ccc(N)cn1`: the survivor count is 0 of 6 under setting [9], 0 of 6 under setting [10] and 0 of 6 under setting [6].
For `COc1cccc2c(NCCCN(C)CCCNc3c4ccccc4nc4c(OC)cccc34)c3ccccc3nc12`, the T/C (dose: 5.0 mg/kg/injection, schedule: Q01DX009 (ip), vehicle: water) was 127 % of control. Besides, the survivor count (dose: 20.0 mg/kg/injection, schedule: Q01DX009 (ip), vehicle: water) is given as 5 of 6.
On to `O=[N+]([O-])c1ccc([Se]CCO)c([N+](=O)[O-])c1`, for which, under setting [11], the survivor count was 0 of 6.
Consider `S=C(Nc1ccccc1)Nc1nccs1`, for which the survivor count (dose: 400.0 mg/kg/injection, schedule: Q01DX009 (ip), vehicle: saline with Tween-80) is recorded as 4 of 6.
Regarding `CC1=NC(C)(Cc2ccccc2)SC1c1ccccc1` (stereo not given), for the setting “dose: 200.0 mg/kg/injection, schedule: Q01DX005 (ip), vehicle: saline with Tween-80”, the survivor count is recorded as 3 of 6.
Turning to `C=CCSc1nc2ccc(N=Cc3ccc([N+](=O)[O-])cc3)cc2s1`, the survivor count under setting [4] is 6 of 6, the survivor count under setting [5] is on record as 4 of 6 and the survivor count under setting [11] is reported as 6 of 6.
Regarding `O=C1CSC(COc2ccc(Cl)cc2Cl)O1` (stereo not given), the survivor count under setting [5] was 1 of 6.
Regarding `Cc1ccc(N)c(O)c1`, the survivor count (dose: 600.0 mg/kg/injection, schedule: Q01DX009 (ip), vehicle: saline) is recorded as 2 of 6.
For `NS(=O)(=O)c1ccc(N=NC2Sc3nc4ccccc4n3C2=O)cc1` (stereo not given), the survivor count under setting [8] is given as 5 of 6.
`CCC(C(=O)N(C)C)n1nc(Br)c(Br)c1C` (stereo not given): the survivor count (dose: 400.0 mg/kg/injection, schedule: Q04DX003 (ip), vehicle: Klucel (hydroxypropylcellulose) (HPC)) is 6 of 6.
As for `CC1(c2ccco2)NC(=O)N(Cl)C1=O` (stereo not given), for the setting “dose: 400.0 mg/kg/injection, schedule: Q04DX003 (ip), vehicle: saline”, the survivor count is reported as 4 of 6.
`C/C(=N/NC(N)=O)c1cn[nH]c1C`: under setting [8], the survivor count is on record as 0 of 6.
With `CN(C)c1ccc(N=C2C=CC(=O)C=C2)cc1`, the survivor count is given as 3 of 6 under setting [9], 0 of 6 under setting [10] and 0 of 6 under setting [6].
In the case of `CCCCCCCC/C=C\C(O)=C1\C(=O)NC(CCCNC(=O)OCc2ccccc2)C1=O` (stereo not given), the survivor count (dose: 100.0 mg/kg/injection, schedule: Q04DX002 (ip), vehicle: saline with Tween-80) is listed as 6 of 6.
Consider `C/C=C1\CC2(OC1=O)C(=O)NC(=O)NC2=O`, for which the survivor count under setting [7] is recorded as 5 of 6.
